These are yes or no findings as the source states them, for the method shown. In cells and extracts the contact can be indirect. Some binding calls cover weakened binding; strength is not graded here.

Protein sequences, listed by entry. Tags and fused reporters are not part of them. Lines headed by an entry give the natural chain unless they say otherwise; changes in a name come on top. Chains listed by the source or under a name are the forms on record and can include a tag or linker.
Thyroid hormone receptor-interacting protein 12 (human (endogenous in T-REx 293 and HeLa)) (Q14669, form named): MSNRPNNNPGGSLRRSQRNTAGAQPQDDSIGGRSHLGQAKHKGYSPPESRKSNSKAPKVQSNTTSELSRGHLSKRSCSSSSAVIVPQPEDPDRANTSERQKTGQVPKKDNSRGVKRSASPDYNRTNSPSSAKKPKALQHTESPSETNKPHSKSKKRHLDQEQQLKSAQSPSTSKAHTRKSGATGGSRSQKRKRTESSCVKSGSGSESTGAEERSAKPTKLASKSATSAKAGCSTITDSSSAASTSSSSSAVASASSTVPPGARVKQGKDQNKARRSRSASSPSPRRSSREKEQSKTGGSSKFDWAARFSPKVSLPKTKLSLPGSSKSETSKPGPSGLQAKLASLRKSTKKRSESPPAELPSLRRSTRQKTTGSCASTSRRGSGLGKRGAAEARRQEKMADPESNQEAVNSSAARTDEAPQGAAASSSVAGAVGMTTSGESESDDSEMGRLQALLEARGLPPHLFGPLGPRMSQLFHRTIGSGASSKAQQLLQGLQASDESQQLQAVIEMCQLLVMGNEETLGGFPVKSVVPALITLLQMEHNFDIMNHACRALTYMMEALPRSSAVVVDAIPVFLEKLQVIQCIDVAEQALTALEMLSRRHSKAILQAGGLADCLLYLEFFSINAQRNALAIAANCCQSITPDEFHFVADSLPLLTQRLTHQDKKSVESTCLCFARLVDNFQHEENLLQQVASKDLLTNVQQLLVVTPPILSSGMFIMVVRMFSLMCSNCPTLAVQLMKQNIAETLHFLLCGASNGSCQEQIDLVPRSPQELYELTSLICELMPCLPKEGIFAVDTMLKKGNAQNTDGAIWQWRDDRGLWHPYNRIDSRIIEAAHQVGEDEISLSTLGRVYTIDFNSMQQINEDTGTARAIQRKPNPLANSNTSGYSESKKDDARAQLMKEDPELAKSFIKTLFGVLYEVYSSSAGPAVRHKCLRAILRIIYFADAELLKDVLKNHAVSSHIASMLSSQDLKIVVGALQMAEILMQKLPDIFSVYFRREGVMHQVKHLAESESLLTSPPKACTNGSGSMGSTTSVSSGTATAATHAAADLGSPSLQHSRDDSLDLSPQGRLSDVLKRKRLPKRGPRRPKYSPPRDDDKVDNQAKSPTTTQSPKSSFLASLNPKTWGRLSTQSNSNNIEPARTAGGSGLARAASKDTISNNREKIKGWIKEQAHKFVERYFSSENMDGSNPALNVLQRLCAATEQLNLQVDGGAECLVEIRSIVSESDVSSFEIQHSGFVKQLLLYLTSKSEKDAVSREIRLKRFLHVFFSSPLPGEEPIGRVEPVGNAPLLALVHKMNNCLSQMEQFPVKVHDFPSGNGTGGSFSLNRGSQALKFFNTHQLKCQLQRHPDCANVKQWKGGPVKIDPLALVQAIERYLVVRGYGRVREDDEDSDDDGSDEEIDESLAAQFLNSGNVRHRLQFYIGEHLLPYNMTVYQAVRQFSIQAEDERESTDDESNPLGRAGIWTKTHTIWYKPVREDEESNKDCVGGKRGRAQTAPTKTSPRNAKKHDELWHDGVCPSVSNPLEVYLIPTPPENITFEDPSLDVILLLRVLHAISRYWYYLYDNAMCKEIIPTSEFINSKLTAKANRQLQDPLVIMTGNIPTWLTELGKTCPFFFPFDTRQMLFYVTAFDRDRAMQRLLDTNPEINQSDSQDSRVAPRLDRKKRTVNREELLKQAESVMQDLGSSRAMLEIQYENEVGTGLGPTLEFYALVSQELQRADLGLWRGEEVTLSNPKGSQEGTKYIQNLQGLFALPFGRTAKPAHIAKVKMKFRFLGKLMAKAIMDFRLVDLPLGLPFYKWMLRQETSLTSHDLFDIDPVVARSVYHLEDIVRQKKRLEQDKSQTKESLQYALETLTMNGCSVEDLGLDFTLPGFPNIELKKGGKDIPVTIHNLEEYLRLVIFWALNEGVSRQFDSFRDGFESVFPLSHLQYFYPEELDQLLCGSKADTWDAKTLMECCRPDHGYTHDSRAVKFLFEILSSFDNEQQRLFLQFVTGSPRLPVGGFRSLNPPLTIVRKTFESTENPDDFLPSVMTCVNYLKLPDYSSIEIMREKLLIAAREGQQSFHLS
UniProt P12956: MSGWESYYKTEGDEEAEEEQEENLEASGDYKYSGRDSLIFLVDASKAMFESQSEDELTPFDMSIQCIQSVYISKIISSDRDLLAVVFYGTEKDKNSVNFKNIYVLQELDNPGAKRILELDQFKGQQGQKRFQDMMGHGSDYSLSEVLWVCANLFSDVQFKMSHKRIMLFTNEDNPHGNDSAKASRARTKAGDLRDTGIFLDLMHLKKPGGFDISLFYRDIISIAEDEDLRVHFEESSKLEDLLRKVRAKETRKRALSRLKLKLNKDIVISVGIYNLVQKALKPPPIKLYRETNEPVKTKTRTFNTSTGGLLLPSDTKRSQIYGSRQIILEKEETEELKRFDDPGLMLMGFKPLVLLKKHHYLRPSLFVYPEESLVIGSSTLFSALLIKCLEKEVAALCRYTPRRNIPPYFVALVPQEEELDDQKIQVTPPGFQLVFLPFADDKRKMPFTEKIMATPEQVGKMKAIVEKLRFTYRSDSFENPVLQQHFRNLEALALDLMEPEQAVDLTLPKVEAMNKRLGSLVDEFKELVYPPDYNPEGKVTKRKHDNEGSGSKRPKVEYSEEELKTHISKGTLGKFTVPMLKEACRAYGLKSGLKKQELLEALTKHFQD

For this experiment, the target named is Thyroid hormone receptor-interacting protein 12 (human (endogenous in T-REx 293 and HeLa)) (UniProt Q14669). Kind of experiment: co-IP; HeLa whole cell extracts (500 ug), untreated or 1 h after 40 Gy IR; immunoprecipitation with anti-TRIP12 antibody (or control IgG), Protein G magnetic beads, 4 C; wash 20 mM HEPES pH 7.4, 100 mM NaCl, 0.05% NP-40; blot for Ku70 and TRIP12.

Turning to “endogenous Ku70 (from UniProt P12956 1-609)”, the binding result is recorded as “binds”.

Values taken from paper PMC10138931.
